Experimental data as given in publication PMC9409277, “Ethyl Vinyl Ketone Activates K^+ Efflux to Regulate Stomatal Closure by MRP4-Dependent eATP Accumulation Working Upstream of H2O2 Burst in Arabidopsis” (International Journal of Molecular Sciences, 2022).
Results are given in words; binding and its absence hold for the method and conditions named. For part of these data: In cells and extracts the contact can be indirect. Some entries that bind do so weakly or less than the wild type. For part of these data: Sequences can lack the tags named with a protein. Values belong to the substance of their own block, whether it stands above or below them.

Protein sequences, listed by entry. Tags and fused reporters are not part of them. Lines headed by an entry give the natural chain unless they say otherwise; changes in a name come on top.
UniProt O48538: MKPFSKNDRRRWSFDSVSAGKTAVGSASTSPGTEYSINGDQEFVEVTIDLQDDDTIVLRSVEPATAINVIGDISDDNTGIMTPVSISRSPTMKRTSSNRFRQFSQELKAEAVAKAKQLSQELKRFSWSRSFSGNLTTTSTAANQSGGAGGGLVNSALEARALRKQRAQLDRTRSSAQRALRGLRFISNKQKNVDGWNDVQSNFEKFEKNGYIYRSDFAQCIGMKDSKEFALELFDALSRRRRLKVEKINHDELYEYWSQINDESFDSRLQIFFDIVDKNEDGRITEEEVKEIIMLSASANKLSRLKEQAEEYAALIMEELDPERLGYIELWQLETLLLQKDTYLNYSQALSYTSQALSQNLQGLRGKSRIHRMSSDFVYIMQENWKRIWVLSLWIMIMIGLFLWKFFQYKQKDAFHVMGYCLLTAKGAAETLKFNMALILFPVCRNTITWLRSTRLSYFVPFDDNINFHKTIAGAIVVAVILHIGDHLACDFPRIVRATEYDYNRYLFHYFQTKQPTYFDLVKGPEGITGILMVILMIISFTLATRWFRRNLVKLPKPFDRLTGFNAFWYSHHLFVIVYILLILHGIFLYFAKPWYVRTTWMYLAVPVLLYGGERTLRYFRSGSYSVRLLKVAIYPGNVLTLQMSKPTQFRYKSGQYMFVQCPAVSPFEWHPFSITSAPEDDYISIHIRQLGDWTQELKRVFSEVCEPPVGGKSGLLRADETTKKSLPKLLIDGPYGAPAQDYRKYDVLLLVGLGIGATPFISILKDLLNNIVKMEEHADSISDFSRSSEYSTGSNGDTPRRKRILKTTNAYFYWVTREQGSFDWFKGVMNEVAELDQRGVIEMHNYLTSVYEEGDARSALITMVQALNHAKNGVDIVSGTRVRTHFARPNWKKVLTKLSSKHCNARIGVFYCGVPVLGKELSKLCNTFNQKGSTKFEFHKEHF

Tests used:
[1] = molecular target: T1, DORN1-BK (DORN1 in pGBKT7) (Arabidopsis) (UniProt Q9LSR8); experiment: two-hybrid; DORN1 in pGBKT7 as bait, RBOHF(1-387aa) in pGADT7; yeast AH109; growth on SD/-Ade/-His/-Leu/-Trp and blue colonies with X-alpha-gal; 12.5 mM 3-AT to inhibit self-activation of the bait
T1 sequence: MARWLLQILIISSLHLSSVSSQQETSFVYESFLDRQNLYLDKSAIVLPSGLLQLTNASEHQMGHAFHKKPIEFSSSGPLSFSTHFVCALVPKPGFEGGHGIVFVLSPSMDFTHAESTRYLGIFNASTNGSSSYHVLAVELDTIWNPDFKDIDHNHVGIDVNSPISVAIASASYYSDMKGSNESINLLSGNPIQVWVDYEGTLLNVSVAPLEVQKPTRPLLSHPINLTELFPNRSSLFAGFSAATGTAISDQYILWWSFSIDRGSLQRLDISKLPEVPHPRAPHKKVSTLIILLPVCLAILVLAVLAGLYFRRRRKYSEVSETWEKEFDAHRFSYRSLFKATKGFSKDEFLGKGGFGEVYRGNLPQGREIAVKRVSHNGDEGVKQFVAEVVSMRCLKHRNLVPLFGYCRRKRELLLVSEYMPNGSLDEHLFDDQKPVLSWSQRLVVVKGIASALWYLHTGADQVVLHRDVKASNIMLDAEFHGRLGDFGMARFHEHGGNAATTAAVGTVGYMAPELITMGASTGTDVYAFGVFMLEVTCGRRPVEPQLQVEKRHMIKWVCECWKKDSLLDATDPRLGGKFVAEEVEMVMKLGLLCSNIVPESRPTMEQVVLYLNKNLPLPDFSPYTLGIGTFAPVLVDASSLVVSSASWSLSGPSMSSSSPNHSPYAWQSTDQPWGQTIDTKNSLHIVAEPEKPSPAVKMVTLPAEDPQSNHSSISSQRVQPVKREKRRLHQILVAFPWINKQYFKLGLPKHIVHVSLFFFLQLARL

DORN1-Cluc (Arabidopsis) = molecular target: T2, DORN1-Cluc (Arabidopsis) (UniProt Q9LSR8); experiment: split reporter; firefly luciferase complementation imaging (LCI): DORN1-Cluc and RBOHF-Nluc in Nicotiana leaves by Agrobacterium GV3101; leaf in four quadrants with Cluc/Nluc controls
T2 sequence: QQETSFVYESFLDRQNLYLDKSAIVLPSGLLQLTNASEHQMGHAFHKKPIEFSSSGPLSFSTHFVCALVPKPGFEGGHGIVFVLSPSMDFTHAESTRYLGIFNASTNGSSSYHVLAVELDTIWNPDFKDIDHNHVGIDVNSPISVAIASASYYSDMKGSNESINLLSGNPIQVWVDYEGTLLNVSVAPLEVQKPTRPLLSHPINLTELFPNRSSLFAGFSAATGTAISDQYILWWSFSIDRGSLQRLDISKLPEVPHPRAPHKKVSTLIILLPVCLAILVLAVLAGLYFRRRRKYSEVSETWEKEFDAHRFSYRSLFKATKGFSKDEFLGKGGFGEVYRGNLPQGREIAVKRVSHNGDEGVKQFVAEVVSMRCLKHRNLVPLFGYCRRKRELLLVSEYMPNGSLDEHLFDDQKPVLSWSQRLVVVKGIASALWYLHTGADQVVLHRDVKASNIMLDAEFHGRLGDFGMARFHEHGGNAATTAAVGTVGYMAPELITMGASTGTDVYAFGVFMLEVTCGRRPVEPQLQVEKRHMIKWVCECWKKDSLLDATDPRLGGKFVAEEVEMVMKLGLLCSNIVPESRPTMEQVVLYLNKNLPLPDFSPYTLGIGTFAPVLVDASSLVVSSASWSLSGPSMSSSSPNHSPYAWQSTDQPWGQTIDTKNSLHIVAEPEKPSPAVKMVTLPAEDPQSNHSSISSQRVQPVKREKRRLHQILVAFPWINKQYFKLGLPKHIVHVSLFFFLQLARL

[2] = molecular target: T3, DORN1-YNE (DORN1 in pSPYNE) (Arabidopsis) (UniProt Q9LSR8); experiment: split reporter; BiFC: DORN1-YNE and RBOHF-YCE in tobacco leaves by Agrobacterium; YFP fluorescence by confocal microscopy
T3 sequence: T2 sequence

- binding [1]: binds
Substance: RBOHF(1-387aa)-AD (RBOHF residues 1-387 in pGADT7) (from UniProt O48538 1-387) (domain or fragment)

- binding (DORN1-Cluc (Arabidopsis)): binds
Substance: RBOHF-Nluc (from UniProt O48538 1-944)

- binding [2]: binds
Substance: RBOHF-YCE (RBOHF in pSPYCE) (from UniProt O48538 1-944)
